PubChem BioAssay AID720505, Drosophila RNAi Screening Center – 2013

- Assay: 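Genes needed for store-operated calcium entry in fly cells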 (primary screen)
- Cell system: Drosophila S2R+ cells
- Knock-down reagent: long dsRNA against Drosophila genes
- Treatment: thapsigargin (2 µM) in calcium-free buffer to empty internal stores, then 2 mM calcium added back
- Detection: 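Fluo-4 signal in 384-well plates read on a FLIPR after thapsigargin (2 µM, calcium-free) store depletion and 2 mM calcium add-back; unnormalised mean endpoint per well; screen run twice, selected wells retested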
- Direction: calcium signal: higher = more calcium entry after store depletion
- Rule for the call: 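About 1500 genes called as lowering calcium entry, by varying amounts, judged against per-plate control wells with STIM1 as positive and Rho1 as negative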
- Meaning of the calls: active = called as lowering calcium entry; inactive = not called
In all, the deposit lists about 20,000 reagents; this is an unselected part of those that have a named target and a result. Over the whole deposit, about 2,100 (10%) got an active call. 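Raw plate signals without normalisation; calls rest on control-based scores that were not deposited; replicate 2 separates called from uncalled poorly.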 A plus sign joins genes that one reagent is predicted to hit. Not given: the amount of reagent, the time to read-out.

The first 2 records, to show the layout:
{"gene knocked down": "CG8010 (GeneID 32921)", "amplicon": "DRSC20072", "calcium signal, replicate 1": 183, "calcium signal, replicate 2": 130, "Outcome": "inactive"}
{"gene knocked down": "Cnep1r1 (GeneID 3355167)", "amplicon": "DRSC20620", "calcium signal, replicate 1": 152, "calcium signal, replicate 2": 105, "Outcome": "inactive"}

The listing, from the first entry:
{"gene knocked down": "CG8010 (GeneID 32921)", "amplicon": "DRSC20072", "calcium signal, replicate 1": 183, "calcium signal, replicate 2": 130, "Outcome": "inactive"}
{"gene knocked down": "Cnep1r1 (GeneID 3355167)", "amplicon": "DRSC20620", "calcium signal, replicate 1": 152, "calcium signal, replicate 2": 105, "Outcome": "inactive"}
{"gene knocked down": "hng1 (GeneID 37412)", "amplicon": "DRSC04555", "calcium signal, replicate 1": 72.4, "calcium signal, replicate 2": 157, "Outcome": "active"}
{"gene knocked down": "CG7800 (GeneID 40963)", "amplicon": "DRSC16315", "calcium signal, replicate 1": 111, "calcium signal, replicate 2": 133, "Outcome": "inactive"}
{"gene knocked down": "CG7631 (GeneID 34919)", "amplicon": "DRSC01873", "calcium signal, replicate 1": 126, "calcium signal, replicate 2": 152, "Outcome": "inactive"}
{"gene knocked down": "RasGAP1 (GeneID 39158)", "amplicon": "DRSC11172", "calcium signal, replicate 1": 104, "calcium signal, replicate 2": 128, "Outcome": "inactive"}
{"gene knocked down": "Cul1 (GeneID 35742)", "amplicon": "DRSC07645", "calcium signal, replicate 1": 170, "calcium signal, replicate 2": 156, "Outcome": "inactive"}
{"gene knocked down": "ATPsynF (GeneID 37931)", "amplicon": "DRSC04482", "calcium signal, replicate 1": 187, "calcium signal, replicate 2": 78.7, "Outcome": "inactive"}
{"gene knocked down": "Tret1-2 (GeneID 36249)", "amplicon": "DRSC07117", "calcium signal, replicate 1": 113, "calcium signal, replicate 2": 211, "Outcome": "inactive"}
{"gene knocked down": "Edg84A (GeneID 40818)", "amplicon": "DRSC12594", "calcium signal, replicate 1": 177, "calcium signal, replicate 2": 147, "Outcome": "inactive"}
{"gene knocked down": "Camp (GeneID 36948)", "amplicon": "DRSC07004", "calcium signal, replicate 1": 224, "calcium signal, replicate 2": 135, "Outcome": "inactive"}
{"gene knocked down": "CG7408 (GeneID 39991)", "amplicon": "DRSC10841", "calcium signal, replicate 1": 128, "calcium signal, replicate 2": 218, "Outcome": "inactive"}
{"gene knocked down": "ey (GeneID 43812)", "amplicon": "DRSC17173", "calcium signal, replicate 1": 94.9, "calcium signal, replicate 2": 154, "Outcome": "inactive"}
{"gene knocked down": "Indy (GeneID 40049)", "amplicon": "DRSC10393", "calcium signal, replicate 1": 99.7, "calcium signal, replicate 2": 122, "Outcome": "inactive"}
{"gene knocked down": "CG13131 (GeneID 34334)", "amplicon": "DRSC02227", "calcium signal, replicate 1": 95.1, "calcium signal, replicate 2": 83.1, "Outcome": "inactive"}
{"gene knocked down": "CG13131 (GeneID 34334)", "amplicon": "DRSC23253", "calcium signal, replicate 1": 97.7, "calcium signal, replicate 2": 195, "Outcome": "inactive"}
{"gene knocked down": "CG32756 (GeneID 318193)", "amplicon": "DRSC22505", "calcium signal, replicate 1": 95.9, "calcium signal, replicate 2": 160, "Outcome": "inactive"}
{"gene knocked down": "CG32756 (GeneID 318193)", "amplicon": "DRSC23271", "calcium signal, replicate 1": 94.9, "calcium signal, replicate 2": 115, "Outcome": "inactive"}
{"gene knocked down": "CG33172 (GeneID 32526)", "amplicon": "DRSC21793", "calcium signal, replicate 1": 164, "calcium signal, replicate 2": 83.2, "Outcome": "inactive"}
{"gene knocked down": "Sirt2 (GeneID 42414)", "amplicon": "DRSC15714", "calcium signal, replicate 1": 198, "calcium signal, replicate 2": 166, "Outcome": "inactive"}
{"gene knocked down": "CG43109 (GeneID 12798341)", "amplicon": "DRSC05754", "calcium signal, replicate 1": 113, "calcium signal, replicate 2": 102, "Outcome": "inactive"}
{"gene knocked down": "CG2186 (GeneID 32017)", "amplicon": "DRSC19838", "calcium signal, replicate 1": 125, "calcium signal, replicate 2": 55, "Outcome": "active"}
{"gene knocked down": "CG9467 (GeneID 41207)", "amplicon": "DRSC16498", "calcium signal, replicate 1": 129, "calcium signal, replicate 2": 141, "Outcome": "inactive"}
{"gene knocked down": "smo (GeneID 33196)", "amplicon": "DRSC00837", "calcium signal, replicate 1": 96.6, "calcium signal, replicate 2": 178, "Outcome": "inactive"}
{"gene knocked down": "knon (GeneID 36845)", "amplicon": "DRSC07049", "calcium signal, replicate 1": 186, "calcium signal, replicate 2": 127, "Outcome": "inactive"}
{"gene knocked down": "CG13912 (GeneID 38120)", "amplicon": "DRSC08381", "calcium signal, replicate 1": 75.2, "calcium signal, replicate 2": 105, "Outcome": "inactive"}
{"gene knocked down": "koko + Vti1b", "amplicon": "DRSC16283", "calcium signal, replicate 1": 228, "calcium signal, replicate 2": 245, "Outcome": "inactive"}
{"gene knocked down": "koko + Vti1b", "amplicon": "DRSC16284", "calcium signal, replicate 1": 195, "calcium signal, replicate 2": 182, "Outcome": "inactive"}
